# The list shows only some results of the screen, not a fair sample: it gathers tests that were run many times, whatever their T/C, doses with no T/C, and many T/C values between a quarter and a half above the control. Other doses and runs of a compound stand elsewhere. T/C gives the treated animals as a percentage of the vehicle group. Schedules are NCI's codes, read here as Q, the interval in days (D) or hours (H), X, the number of doses. Some T/C values are negative: the treated tumours shrank. Some T/C values carry the count of animals alive at the toxicity check (mostly the fifth day); where none is given, no animal had died by that day. Some doses have a count of surviving animals in place of a T/C: the source holds a T/C of zero for them, seemingly a mark for toxic or unscored doses. Survivors were counted at the toxicity check, usually on the fifth day, unless a day is given; later deaths do not show. Some entries hold several experiments; the results are listed from low to high.
# Tested on: CD8F1 mice, subcutaneous mammary adenocarcinoma, T/C%
# Assay: NCI In Vivo Anticancer Drug Screen. Data for tumor model Mammary Adenocarcinoma CD8F1 (subcutaneous) in CD8F1
# Settings: higher T/C = larger tumour
# Summary of the method: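 Compound-treated versus vehicle-treated mice with transplantable tumors; survival or tumor size compared as T/C.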
smiles,measurement,setting,value
COc1cccc2c1C(=O)c1c(O)c3c(c(O)c1C2=O)CC(O)(/C(C)=N/NC(=O)CCCCC(=O)N/N=C(\C)C1(O)Cc2c(O)c4c(c(O)c2C(OC2CC(N)C(O)C(C)O2)C1)C(=O)c1c(OC)cccc1C4=O)CC3OC1CC(N)C(O)C(C)O1 (stereo not drawn),survivor count,"T/C endpoint: median tumor weight change, dose: 62.0 mg/kg/injection, schedule: Q01DX001 (ip), vehicle: water",1 of 10 on day 26
same,survivor count,"T/C endpoint: median tumor weight change, dose: 125.0 mg/kg/injection, schedule: Q01DX001 (ip), vehicle: water",0 of 10 on day 26
Cc1cn(C2CC(O)C(CO)O2)c(=O)[nH]c1=O (stereo not drawn),T/C,"T/C endpoint: median tumor weight (est.), dose: 100.0 mg/kg/injection, schedule: Q07DX005 (ip), vehicle: saline, evaluated on day 30",137 % of control [9 of 10 alive]
same,T/C,"T/C endpoint: median tumor weight (est.), dose: 200.0 mg/kg/injection, schedule: Q07DX005 (ip), vehicle: saline, evaluated on day 30",127 % of control [9 of 10 alive]
same,T/C,"T/C endpoint: median tumor weight (est.), dose: 400.0 mg/kg/injection, schedule: Q07DX005 (ip), vehicle: saline, evaluated on day 30",131 % of control
Cc1cc(NCCCCCCCCNc2cc(C)nc3cc(N(C)C)ccc23)c2ccc(N(C)C)cc2n1,survivor count,"T/C endpoint: median tumor weight change, dose: 62.0 mg/kg/injection, schedule: Q01DX001 (ip), vehicle: distilled water + Tween-80",6 of 10 on day 28
same,T/C,"T/C endpoint: median tumor weight change, dose: 62.5 mg/kg/injection, schedule: Q01DX001 (ip), vehicle: distilled water + Tween-80, evaluated on day 36",142 % of control
same,survivor count,"T/C endpoint: median tumor weight change, dose: 125.0 mg/kg/injection, schedule: Q01DX001 (ip), vehicle: distilled water + Tween-80 + alcohol",2 of 10 on day 39
same,T/C,"T/C endpoint: median tumor weight change, dose: 125.0 mg/kg/injection, schedule: Q01DX001 (ip), vehicle: distilled water + Tween-80, evaluated on day 36",-17 % of control [7 of 10 alive on day 36]
same,survivor count,"T/C endpoint: median tumor weight change, dose: 125.0 mg/kg/injection, schedule: Q01DX001 (ip), vehicle: distilled water + Tween-80","4 of 10 on day 28, 4 of 10 on day 34, 4 of 10 on day 36"
same,survivor count,"T/C endpoint: median tumor weight change, dose: 250.0 mg/kg/injection, schedule: Q01DX001 (ip), vehicle: distilled water + Tween-80 + alcohol",0 of 10 on day 39
same,survivor count,"T/C endpoint: median tumor weight change, dose: 250.0 mg/kg/injection, schedule: Q01DX001 (ip), vehicle: distilled water + Tween-80","0 of 10 on day 28, 0 of 10 on day 34, 0 of 10 on day 36, 1 of 10 on day 36"
same,survivor count,"T/C endpoint: median tumor weight change, dose: 500.0 mg/kg/injection, schedule: Q01DX001 (ip), vehicle: distilled water + Tween-80 + alcohol",0 of 10 on day 39 and 6 of 10 on day 30
same,survivor count,"T/C endpoint: median tumor weight change, dose: 500.0 mg/kg/injection, schedule: Q01DX001 (ip), vehicle: distilled water + Tween-80",0 of 10 on day 36
COc1c(O)c2c(c3cc(C(=O)N4CCc5c4c(O)c(OC)c4[nH]c(C(=O)N6CC7CC78C6=CC(=O)c6[nH]cc(C)c68)cc54)[nH]c13)CCN2C(N)=O (stereo not drawn),survivor count,"T/C endpoint: median tumor weight (est.), dose: 25.0 micrograms/kg/injection, schedule: Q07DX005 (ip), vehicle: DMSO",5 of 10 on day 30
same,survivor count,"T/C endpoint: median tumor weight (est.), dose: 50.0 micrograms/kg/injection, schedule: Q07DX005 (ip), vehicle: DMSO",4 of 10 on day 30
same,survivor count,"T/C endpoint: median tumor weight (est.), dose: 100.0 micrograms/kg/injection, schedule: Q07DX005 (ip), vehicle: DMSO",0 of 10 on day 30
same,survivor count,"T/C endpoint: median tumor weight (est.), dose: 200.0 micrograms/kg/injection, schedule: Q07DX005 (ip), vehicle: DMSO",0 of 10 on day 30
O=C(O)CC(NC(=O)CP(=O)(O)O)C(=O)O.[NH-]C1CCCCC1[NH-].[Pt+2] (stereo not drawn),T/C,"T/C endpoint: median tumor weight change, dose: 25.0 mg/kg/injection, schedule: Q01DX001 (ip), vehicle: dextrose, evaluated on day 26",75 % of control
same,T/C,"T/C endpoint: median tumor weight change, dose: 25.0 mg/kg/injection, schedule: Q01DX001 (ip), vehicle: dextrose, evaluated on day 29",148 % of control
same,T/C,"T/C endpoint: median tumor weight change, dose: 25.0 mg/kg/injection, schedule: Q01DX001 (ip), vehicle: dextrose, evaluated on day 32",41 % of control
same,T/C,"T/C endpoint: median tumor weight change, dose: 25.0 mg/kg/injection, schedule: Q01DX001 (ip), vehicle: dextrose, evaluated on day 33",52 % of control
same,T/C,"T/C endpoint: median tumor weight change, dose: 50.0 mg/kg/injection, schedule: Q01DX001 (ip), vehicle: dextrose, evaluated on day 26",24 % of control
same,T/C,"T/C endpoint: median tumor weight change, dose: 50.0 mg/kg/injection, schedule: Q01DX001 (ip), vehicle: dextrose, evaluated on day 29",89 % of control
same,T/C,"T/C endpoint: median tumor weight change, dose: 50.0 mg/kg/injection, schedule: Q01DX001 (ip), vehicle: dextrose, evaluated on day 32",36 % of control [9 of 10 alive on day 32]
same,T/C,"T/C endpoint: median tumor weight change, dose: 50.0 mg/kg/injection, schedule: Q01DX001 (ip), vehicle: dextrose, evaluated on day 33",37 % of control
same,T/C,"T/C endpoint: median tumor weight change, dose: 100.0 mg/kg/injection, schedule: Q01DX001 (ip), vehicle: dextrose, evaluated on day 26",-23 % of control [9 of 10 alive on day 26]
same,T/C,"T/C endpoint: median tumor weight change, dose: 100.0 mg/kg/injection, schedule: Q01DX001 (ip), vehicle: dextrose, evaluated on day 29",5 % of control [7 of 10 alive on day 29]
same,T/C,"T/C endpoint: median tumor weight change, dose: 100.0 mg/kg/injection, schedule: Q01DX001 (ip), vehicle: dextrose, evaluated on day 33",-2 % of control
same,survivor count,"T/C endpoint: median tumor weight change, dose: 100.0 mg/kg/injection, schedule: Q01DX001 (ip), vehicle: dextrose",3 of 10 on day 32
same,survivor count,"T/C endpoint: median tumor weight change, dose: 200.0 mg/kg/injection, schedule: Q01DX001 (ip), vehicle: dextrose","0 of 10 on day 26, 0 of 10 on day 29, 0 of 10 on day 32, 1 of 10 on day 33"
same,survivor count,"T/C endpoint: median tumor weight change, dose: 400.0 mg/kg/injection, schedule: Q01DX001 (ip), vehicle: dextrose",0 of 10 on day 33
CN1CCc2c(c3ccccc3c3ccccc23)C1,survivor count,"T/C endpoint: median tumor weight change, dose: 200.0 mg/kg/injection, schedule: Q01DX001 (ip), vehicle: Klucel (hydroxypropylcellulose) (HPC)",0 of 10 on day 28
same,survivor count,"T/C endpoint: median tumor weight change, dose: 250.0 mg/kg/injection, schedule: Q01DX001 (ip), vehicle: Klucel (hydroxypropylcellulose) (HPC)",2 of 10 on day 36
same,survivor count,"T/C endpoint: median tumor weight change, dose: 500.0 mg/kg/injection, schedule: Q01DX001 (ip), vehicle: Klucel (hydroxypropylcellulose) (HPC)",0 of 10 on day 36
CCN=C=NCCCN(C)C,survivor count,"T/C endpoint: median tumor weight change, dose: 62.5 mg/kg/injection, schedule: Q01DX001 (ip), vehicle: saline",3 of 9 on day 36
same,survivor count,"T/C endpoint: median tumor weight change, dose: 125.0 mg/kg/injection, schedule: Q01DX001 (ip), vehicle: saline",0 of 10 on day 36
same,survivor count,"T/C endpoint: median tumor weight change, dose: 250.0 mg/kg/injection, schedule: Q01DX001 (ip), vehicle: saline",0 of 10 on day 36
same,survivor count,"T/C endpoint: median tumor weight change, dose: 500.0 mg/kg/injection, schedule: Q01DX001 (ip), vehicle: saline",0 of 10 on day 36
same,survivor count,"T/C endpoint: median tumor weight change, dose: 1000.0 mg/kg/injection, schedule: Q01DX001 (ip), vehicle: saline",0 of 9 on day 36
CC[C@]1(O)C[C@H]2CN(CCc3c([nH]c4ccccc34)[C@@](C(=O)OC)(c3cc4c(cc3OC)N(C=O)[C@H]3[C@@](O)(C(=O)OC)[C@H](OC(C)=O)[C@]5(CC)C=CCN6CC[C@]43[C@@H]65)C2)C1,T/C,"T/C endpoint: median tumor weight (est.), dose: 0.4 mg/kg/injection, schedule: Q01DX005 (ip), vehicle: saline, evaluated on day 30",146 % of control
same,survivor count,"T/C endpoint: median tumor weight (est.), dose: 0.95 mg/kg/injection, schedule: Q04DX005 (ip), vehicle: saline",6 of 10
same,survivor count,"T/C endpoint: median tumor weight (est.), dose: 1.0 mg/kg/injection, schedule: Q07DX005 (ip), vehicle: saline",6 of 10 on day 30
same,survivor count,"T/C endpoint: median tumor weight (est.), dose: 2.0 mg/kg/injection, schedule: Q07DX005 (ip), vehicle: saline",2 of 10 on day 30 and 6 of 10 on day 30
same,survivor count,"T/C endpoint: median tumor weight (est.), dose: 2.1 mg/kg/injection, schedule: Q04DX005 (ip), vehicle: saline",3 of 10
same,survivor count,"T/C endpoint: median tumor weight (est.), dose: 2.1 mg/kg/injection, schedule: Q07DX005 (ip), vehicle: saline",6 of 10
same,survivor count,"T/C endpoint: median tumor weight (est.), dose: 3.0 mg/kg/injection, schedule: Q04DX005 (ip), vehicle: saline",1 of 10
same,survivor count,"T/C endpoint: median tumor weight (est.), dose: 3.0 mg/kg/injection, schedule: Q07DX005 (ip), vehicle: saline",4 of 10
same,survivor count,"T/C endpoint: median tumor weight (est.), dose: 4.0 mg/kg/injection, schedule: Q07DX005 (ip), vehicle: saline",0 of 10 on day 30
same,survivor count,"T/C endpoint: median tumor weight (est.), dose: 8.0 mg/kg/injection, schedule: Q07DX005 (ip), vehicle: saline",0 of 10 on day 30
CCCN1COC(OCC)C(C)(C)C1 (stereo not drawn),survivor count,"T/C endpoint: median tumor weight change, dose: 400.0 mg/kg/injection, schedule: Q01DX001 (ip), vehicle: saline with Tween-80",2 of 10 on day 28
same,survivor count,"T/C endpoint: median tumor weight change, dose: 800.0 mg/kg/injection, schedule: Q01DX001 (ip), vehicle: saline with Tween-80",0 of 10 on day 28
same,survivor count,"T/C endpoint: median tumor weight change, dose: 1000.0 mg/kg/injection, schedule: Q01DX001 (ip), vehicle: saline with Tween-80",0 of 10 on day 26

# Source: PubChem BioAssay AID220 (DTP/NCI, 2004)
